{"source": "paper doi:10.1101/2020.04.13.038935", "binders": {"B1": {"name": "Anterior GRadient 2 (AGR2, PDIA17), O95994 21-175 (protein)", "chain": "RDTTVKPGAKKDTKDSRPKLPQTLSRGWGDQLIWTQTYEEALYKSKTSNKPLMIIHHLDECPHSQALKKVFAENKEIQKLAEQFVLLNLVYETTDKHLSPDGQYVPRIMFVDPSLTVRADITGRYSNRLYAYEPADTALLLDNMKKALKLLKTEL"}}, "biological_target": "wild-type p53 tumor suppressor (human (endogenous in A549)), P04637", "test": "co-IP", "details": "remark: other sources report otherwise", "note": "No constants are given. Whether binding was seen depends on the method and setting. In cells and extracts the contact can be indirect. Some entries that bind do so weakly or less than the wild type."}
{"binder": "B1", "values": [{"measurement": "binding", "value": "binds"}]}
